{"sequences": {"note": "Amino acid sequences for entries named in this document (tags omitted).", "UniProt Q03431, whole entry, looked up": "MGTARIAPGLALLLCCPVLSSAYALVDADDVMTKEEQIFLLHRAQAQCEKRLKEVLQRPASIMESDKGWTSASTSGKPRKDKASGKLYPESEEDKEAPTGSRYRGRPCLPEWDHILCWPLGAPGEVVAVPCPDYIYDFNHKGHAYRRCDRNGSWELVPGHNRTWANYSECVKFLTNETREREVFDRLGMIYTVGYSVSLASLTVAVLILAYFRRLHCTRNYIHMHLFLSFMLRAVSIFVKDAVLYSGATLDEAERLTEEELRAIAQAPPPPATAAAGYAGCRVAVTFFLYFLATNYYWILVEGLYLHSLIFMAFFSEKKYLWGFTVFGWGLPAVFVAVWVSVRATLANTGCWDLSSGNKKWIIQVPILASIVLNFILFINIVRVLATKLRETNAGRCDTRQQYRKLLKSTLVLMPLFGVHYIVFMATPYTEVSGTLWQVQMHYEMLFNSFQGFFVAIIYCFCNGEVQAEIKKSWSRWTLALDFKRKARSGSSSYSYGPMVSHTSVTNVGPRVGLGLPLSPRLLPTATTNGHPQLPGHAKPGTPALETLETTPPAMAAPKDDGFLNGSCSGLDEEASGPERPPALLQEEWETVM"}, "source": "PubChem BioAssay AID743266", "about": "(National Center for Advancing Translational Sciences (NCATS), 2014)", "note": "About 310 (0.076%) of roughly 410,000 compounds were called active. The shares of active, inactive and inconclusive entries below differ from those in the screen. Calls follow the shape of the dose curve; as a rule, active = well fitted activation curve with a large enough effect; inconclusive = small, poorly fitted or top-dose-only effect, or another doubt; inactive = no such curve, though single readings can be large or run the other way. Where the call is inconclusive, the potency comes from a doubtful curve fit. Potency is read from the fitted curve at half-maximal effect.", "data": [{"biological_target": "Parathyroid hormone/parathyroid hormone-related peptide receptor (Homo sapiens) (UniProt Q03431)", "assay": "qHTS for PTHR1 Agonists: Primary Screen; also: nearly all actives have a fitted effect of over 55% in size", "settings": "HEK293 GP2 PTHR1 cells, GloSensor cAMP luminescence, 1 h; activation: at 115 µM (top of the series) unless noted; series mostly up to 115 µM", "summary_of_the_method": "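HEK-293-derived GP2 cells expressing PTHR1 and a GloSensor cAMP reporter, 3,000/well, plated overnight, given luciferin plus IBMX (each 0.5 mM as added) for 1 h at 37 °C, then compound for 1 h at 37 °C. Luminescence was read after 15 min at room temperature.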", "values": [{"molecule": "CC(=O)Nc1ccc(C=NNC(=O)CCCC(=O)NN=Cc2ccc(NC(C)=O)cc2)cc1", "activation": "inactive: -22.6%"}, {"molecule": "O=c1ccc(-c2ccc(S(=O)(=O)NCC3CCN(Cc4cccc(F)c4)CC3)s2)n[nH]1", "Potency": "inconclusive: 126 µM [activator, single point]"}, {"molecule": "CCOCCCNC(=O)c1cn(C)c2ccc(S(=O)(=O)N3CCCCC3)cc2c1=O", "Potency": "inconclusive: 0.767 µM [activator, full curve]"}, {"molecule": "Cc1ccc(OCCn2cc(/C(N)=N/O)c3ccccc32)cc1C", "activation": "inconclusive: 33.9% [activator]"}, {"molecule": "CC1(c2ccccc2)NC(=O)N(CC(=O)Nc2ccc3c(c2)CCC3)C1=O", "note": "(centres undefined)", "outcome": "inactive"}, {"molecule": "COC(=O)c1cc(=O)nc(NNC(C)=O)s1", "outcome": "inactive"}, {"molecule": "N#Cc1ccc(S(=O)(=O)NC2CC2)cc1", "activation": "inconclusive: -8.76% [activator]"}, {"molecule": "CN1CCN(C(=O)CCNC(=O)Cn2ccc3ccccc3c2=O)CC1", "Potency": "inconclusive: 56.2 µM [activator, partial curve, poor fit]"}, {"molecule": "COc1ccc(C)cc1NC(=O)Nn1cnnc1", "Potency": "inconclusive: 35.5 µM [activator, single point]"}, {"molecule": "CCOC(=O)Nc1nc2ccccc2s1", "outcome": "inactive [at 57.5 µM]"}, {"molecule": "CC(/C=C/c1ccccc1)=N\\NC(N)=S", "activation": "inactive: -11.7%"}, {"molecule": "Cc1ccc(CN2CCN(C(=O)c3cccc4ccccc34)CC2)cc1", "activation": "inactive: -33.9%"}, {"molecule": "COc1cc([C@@H]2[C@H]3CN(C)CC=C3C(C#N)=C(N)C2(C#N)C#N)cc2c1OCO2", "activation": "inconclusive: 36% [activator] [at 57.5 µM]"}, {"molecule": "Cc1cc(C)c(NC(=O)COC(=O)C2CCCCC2)c(C)c1", "Potency": "inconclusive: 141 µM [activator, single point]"}, {"molecule": "CCOC(=O)CN1CCS(=O)(=O)CC1", "Potency": "inconclusive: 112 µM [activator, single point]"}, {"molecule": "COc1cccc(SCc2noc(C(=O)NCC3CCCO3)c2C(=O)O)c1", "note": "(centres undefined)", "Potency": "inconclusive: 355 µM [activator, partial curve, poor fit]"}, {"molecule": "CC(C)Sc1nc(-c2ccccc2)cc(=O)[nH]1", "Potency": "inconclusive: 39.8 µM [activator, single point]"}, {"molecule": "CCOc1cc(C(=O)N/N=C/C2CC=CCC2)cc(OCC)c1OCC", "note": "(centres undefined)", "Potency": "inconclusive: 141 µM [activator, single point]"}, {"molecule": "Cc1cccc(C2N=C(N)Nc3nc4ccccc4n32)c1", "note": "(centres undefined)", "Potency": "inconclusive: 6.31 µM [activator, partial curve]"}, {"molecule": "CNC(=S)NCC(O)c1ccc([N+](=O)[O-])cc1", "note": "(centres undefined)", "Potency": "inconclusive: 112 µM [activator, partial curve, poor fit]"}, {"molecule": "COC(=O)C1(C)NC(c2ccc(F)cc2)C2C(=O)N(c3ccccc3)C(=O)C21", "note": "(centres undefined)", "Potency": "inconclusive: 126 µM [activator, single point]"}, {"molecule": "O=C(O)c1ccc2c(c1)C(=O)N(CCC1=CCCCC1)C2=O", "Potency": "inconclusive: 39.8 µM [activator, single point]"}, {"molecule": "CCOC(=O)N1CCN(c2ncnc3c2oc2nc(C(C)C)c4c(c23)CCC4)CC1", "Potency": "inconclusive: 35.5 µM [activator, single point]"}, {"molecule": "Cc1cc(C)nc(/N=c2/ssnc2Cl)c1", "activation": "inactive: -6.21%"}, {"molecule": "CCSc1nnc(NC(=O)C2Cc3ccccc3CN2S(=O)(=O)CC)s1", "note": "(centres undefined)", "activation": "inconclusive: -9.14% [activator]"}, {"molecule": "COc1cccc(CNC(=O)Cn2ccc([N+](=O)[O-])n2)c1", "Potency": "inconclusive: 17.8 µM [activator, single point]"}, {"molecule": "COc1ccc(CCNC(=O)Cn2cc(S(=O)(=O)Cc3cccc(Cl)c3)c3ccccc32)cc1OC", "activation": "inactive: -22.8%"}, {"molecule": "N#CC1(NC(=O)COC(=O)CCCN=C2NS(=O)(=O)c3ccccc32)CCCCC1", "Potency": "inconclusive: 126 µM [activator, single point]"}, {"molecule": "CCCC(=O)N(Cc1cccnc1)c1nc2c(OC)ccc(Cl)c2s1", "activation": "inconclusive: 32.4% [activator]"}, {"molecule": "O=C(Nc1ccc(OCc2ccccc2)cc1)Nc1nnc([C@H]2C[C@H](O)[C@@H](CO)O2)s1", "outcome": "inactive"}, {"molecule": "Cc1ccc(NC(=O)CN2C(=O)CCc3cc(S(=O)(=O)N4CCCCC4)ccc32)cc1N(C)C", "outcome": "inactive"}, {"molecule": "C#CCNC(=O)c1cccn1-c1ncc(C(F)(F)F)cc1Cl", "Potency": "inconclusive: 2.82 µM [activator, partial curve, poor fit]"}, {"molecule": "CCCn1nnnc1NCc1cccn1C", "activation": "inconclusive: 95.9% [activator] [at 57.5 µM]"}, {"molecule": "CC(=O)c1nn(-c2ccc(OC(F)(F)F)cc2)nc1Nc1ccc(C)cc1", "activation": "inconclusive: 48% [activator]"}, {"molecule": "COc1ccccc1CNC(=O)CS(=O)Cc1nc(-c2ccc(OC)c(OC)c2)oc1C", "note": "(centres undefined)", "Potency": "inconclusive: 50.1 µM [activator, partial curve, poor fit]"}, {"molecule": "COc1ccccc1C(=O)NC(=O)COC(=O)Cc1ccc(F)cc1", "Potency": "inconclusive: 35.5 µM [activator, partial curve]"}, {"molecule": "Cc1ccn(CCSCC(=O)O)n1", "Potency": "inconclusive: 56.2 µM [activator, single point]"}, {"molecule": "COc1cc(NC(=O)CCS(=O)(=O)c2ccc3nc(C)sc3c2)cc(OC)c1OC", "Potency": "inconclusive: 44.7 µM [activator, partial curve, poor fit]"}, {"molecule": "CCN(CC(=O)Nc1c(F)cccc1F)C(=O)CCc1nc2sc3c(c2c(=O)[nH]1)CCCC3", "Potency": "inconclusive: 126 µM [activator, single point]"}, {"molecule": "O=C(Nc1ccccc1Cl)c1cc2c(-c3ccccc3)nn(-c3ccccc3)c2s1", "outcome": "inactive"}, {"molecule": "Cc1cccc(-c2nnc(C(C)Nc3cccc(C(=O)NC4CC4)c3)o2)c1", "note": "(centres undefined)", "activation": "inactive: -23%"}, {"molecule": "CCCc1nnc(SCC(=O)NC2CC2)n1C", "Potency": "inconclusive: 31.6 µM [activator, partial curve, poor fit]"}, {"molecule": "CC(=O)N1CCC2(CC1)CC(=O)c1cc(OCC(=O)N3CCCC3)ccc1O2", "Potency": "inconclusive: 126 µM [activator, single point]"}, {"molecule": "CCN(c1ccccc1)S(=O)(=O)c1ccc(N2CCN(c3ccc(O)cc3)CC2)nc1", "activation": "inactive: -42.8%"}, {"molecule": "Cn1c(=O)cc(OCC(=O)NCc2ccc(F)cc2Cl)c2ccccc21", "Potency": "inconclusive: 79.4 µM [activator, partial curve, poor fit]"}, {"molecule": "CC1CCCCC1NC(=O)Cn1nnc(-c2ccc(Cl)cc2)n1", "note": "(centres undefined)", "Potency": "inconclusive: 35.5 µM [activator, partial curve, poor fit]"}, {"molecule": "O=C(COC(=O)CC1SC(N2CCCC2)=NC1=O)Nc1c(F)c(F)c(F)c(F)c1F", "note": "(centres undefined)", "Potency": "inconclusive: 112 µM [activator, single point]"}, {"molecule": "N#Cc1ccc(CSc2nnc(-c3ccccc3)n2Cc2ccco2)cc1", "Potency": "inconclusive: 20 µM [activator, partial curve, poor fit]"}, {"molecule": "COc1ccccc1CC(=O)N1CCN(c2cccc(C(F)(F)F)c2)CC1", "activation": "inactive: -34.3%"}, {"molecule": "CC(=O)n1cc([C@H]2C=C(C(=O)NCc3ccccc3)O[C@@H](OCc3ccc(CO)cc3)C2)c2ccccc21", "activation": "inactive: -31%"}, {"molecule": "CCOc1ccc(-c2c(C(=O)N/N=C/c3c[nH]c4ccccc34)nnn2-c2nonc2N)cc1", "Potency": "inconclusive: 126 µM [activator, single point]"}, {"molecule": "CC(C)COC(=O)C(C)Nc1n[nH]c(=S)[nH]c1=O", "note": "(centres undefined)", "Potency": "inconclusive: 15.8 µM [activator, partial curve, poor fit]"}, {"molecule": "Cc1ccc(-c2nc(CN3CCCC(C(=O)N4CCOCC4)C3)c(C)o2)cc1", "note": "(centres undefined)", "activation": "inconclusive: 30.8% [activator]"}, {"molecule": "O=C(CN1CCN(c2ccccn2)CC1)N1c2ccccc2CCc2ccccc21", "outcome": "inactive [at 57.5 µM]"}, {"molecule": "CC1(OC(=O)CCc2ccccc2)C(=O)C=C2C=C(c3ccc(C#N)cc3)N(CCc3c[nH]c4ccccc34)C=C2C1=O", "note": "(centres undefined)", "Potency": "inconclusive: 17.8 µM [activator, partial curve, poor fit]"}, {"molecule": "COC(=O)c1sccc1NC(=O)CSc1ccccc1NS(=O)(=O)c1ccccc1Cl", "activation": "inconclusive: -70.2% [activator] [at 57.5 µM]"}, {"molecule": "CC1Cn2cc(C(=O)Nc3cccc(C(F)(F)F)c3)c(=O)c3c(Cl)ccc(c32)O1", "note": "(centres undefined)", "Potency": "inconclusive: 89.1 µM [activator, partial curve, poor fit]"}, {"molecule": "O=C(NCCCn1ccnc1)c1cc(-c2cccs2)on1", "activation": "inactive: -1.71%"}, {"molecule": "COc1ccc(-c2cc3nc(-c4ccccc4)cc(N4CCN(C(C)=O)CC4)n3n2)cc1", "Potency": "inconclusive: 22.4 µM [activator, partial curve, poor fit]"}, {"molecule": "COc1cccc(OC)c1OCCCNC1CCCC1", "activation": "inconclusive: 35.7% [activator]"}, {"molecule": "O=C(c1ccc(=O)oc1)N1CCOCC1", "activation": "inconclusive: 28.9% [activator]"}, {"molecule": "COc1cc(OC)cc(-c2nc3nc(C)c(CCC(=O)Nc4cc(F)ccc4F)c(C)n3n2)c1", "Potency": "inconclusive: 56.2 µM [activator, full curve, poor fit]"}, {"molecule": "COc1ccc2oc(-c3ccc(C)c(NC(=O)Cc4ccc(Cl)cc4)c3)nc2c1", "activation": "inactive: -6.7%"}, {"molecule": "CCOC(=O)N1CCN(C(=O)C2CCN(S(=O)(=O)N3CCCC3)CC2)CC1", "Potency": "inconclusive: 39.8 µM [activator, single point]"}, {"molecule": "COc1ccc(S(=O)(=O)N2CCCC(C(=O)N3CCCC3)C2)cc1OC", "note": "(centres undefined)", "activation": "inconclusive: 30.1% [activator]"}, {"molecule": "CCOc1ccc(CN2CCN(C3CCSCC3)CC2CCO)cc1", "note": "(centres undefined)", "outcome": "inactive"}, {"molecule": "Cc1cccc(C)c1NC(=O)Cn1nc(C)c2sc3ccccc3c2c1=O", "Potency": "inconclusive: 79.4 µM [activator, partial curve, poor fit]"}, {"molecule": "Cc1cc(C)cc(OCC(=O)N2Cc3ccccc3CC2C(=O)O)c1", "note": "(centres undefined)", "activation": "inconclusive: 52.4% [activator]"}, {"molecule": "CC1(C(=O)O)CCC(C(=O)Nc2ccccc2)C1(C)C", "note": "(centres undefined)", "Potency": "inconclusive: 35.5 µM [activator, single point]"}]}]}
